Experimental data taken from article PMC5641590, “An Automated Platform for Assessment of Congenital and Drug-Induced Arrhythmia with hiPSC-Derived Cardiomyocytes” (Frontiers in Physiology, 2017).

How the values were obtained:
[1] = system: neonatal rat ventricular CMs; assay: VF2.1.Cl AP recording in isolated neonatal rat ventricular CMs; format: cell-based; settings: 0.3 μM E-4031; 1 μM acetylcholine; paced 0.3 Hz
Procedure: (§1) Neonatal atrial and ventricular rat cardiomyocytes were isolated with the neonatal rat cardiomyocyte isolation kit (Worthington, New Jersey, USA) (Toraason et al., [1989]; Macgregor et al., [1995]) and cultured at 37°C with 5% CO2. Briefly, heart atria and ventricles were dissected from 1 day old Hsd:Sprague-Dawley rats, then digested overnight at 4°C with trypsin. Digestion continued 12 h later with collagenase for approximately 90 min at 37°C. […] After 24 h, media was changed to low-serum medium (the same as above but substituting 0.25% FCS for 10% horse serum and 5% FCS). Seventy two hours after seeding the cells, they were processed for voltage imaging. All animal handling and care followed the NIH Guide for Care and Use of Laboratory Animals. […] EADs were quantified automatically using the default noise threshold in the whole well cardiac time series algorithm. […] Data tables were analyzed using Microsoft Excel 2013 and dose response curves and heat maps were calculated using GraphPad Prism 7 software. […]

neonatal rat atrial CMs = assay: VF2.1.Cl AP recording in isolated neonatal rat atrial CMs; format: cell-based; settings: 0.3 μM E-4031; 1 μM acetylcholine; paced 0.3 Hz
Procedure: as §1

[2] = system: normal individual (iCell) hiPSC-CMs

Cc1cccc(CCN2CCC(C(=O)c3ccc(NS(C)(=O)=O)cc3)CC2)n1 [E-4031]
effect on APD [1]: prolonged APD in ventricular CMs
effect on APD (neonatal rat atrial CMs): not atrial CMs
arrhythmia phenotype: APD prolongation, EADs, voltage alternans [2]: extensive dose-dependent prolongation of APD, induction of EADs and, at some doses, voltage alternans
